Test results as given in ChEMBL document CHEMBL1133426, “2-Substituted paullones: CDK1/cyclin B-inhibiting property and in vitro antiproliferative activity” (Bioorg Med Chem Lett, 2000).

Columns and labels:
[1] = tested on: HCT-116; test: cells; assay type: functional; settings: Homo sapiens
[2] = cells; assay type: functional; settings: Homo sapiens

Compound | GI50 [1] [nM] | GI50 [2] [µM]
N#CCCc1ccc2c(c1)-c1[nH]c3ccc(C(F)(F)F)cc3c1CC(=O)N2 | 794 | 2
O=C1Cc2c([nH]c3ccc(C(F)(F)F)cc23)-c2ccccc2N1 | 3980 | 79.4
